Data: PubChem BioAssay AID248 (DTP/NCI, 2004)
The list does not hold the whole screen: it is rich in T/C values a quarter to a half above the control, in often repeated tests (any T/C) and in doses without a T/C. Other doses and runs of a compound stand elsewhere. T/C gives the treated animals as a percentage of the vehicle group. Some entries give survivors of the animals treated and no T/C: the source files T/C as zero there, which appears to mark a toxic dose or a test without result, not a measured value. Some survivor counts are full or nearly so, which does not show that the dose was tolerated: survival well below the control is almost never listed, so the zero probably covers shortened survival too. Survivors were counted at the toxicity check, usually on the fifth day, unless a day is given; later deaths do not show. Schedules are NCI's codes, taken here to give the interval after Q, in days (D) or hours (H), and the number of doses after X. Some schedule codes hold Z or #, which are not explained here. Some molecules as drawn cover several salts, stereoisomers or complexes of the source; a dose is that of the sample tested. Some entries hold several experiments; the values are given in rising order. Where survival is the endpoint, this PubChem deposit counts one and a half times the control or more as active, and values a quarter to a half above the control carry no call in these data; other NCI protocols may use other cut-offs. Some T/C values carry the count of animals alive at the toxicity check (mostly the fifth day); without a count, all were alive then. Brackets with × stand for listed records that agree.

Test system: L1210 leukemia ip in BDF1 mice, survival T/C
Experiment: NCI In Vivo Anticancer Drug Screen. Data for tumor model L1210 Leukemia (intraperitoneal) in B6D2F1 (BDF1) mice
Settings: higher T/C = longer survival
[1] = T/C endpoint: mean survival time, dose: 200.0 mg/kg/injection, schedule: Q01DX001 (ip), vehicle: saline
[2] = T/C endpoint: mean survival time, dose: 400.0 mg/kg/injection, schedule: Q01DX001 (ip), vehicle: carboxymethylcellulose (CMC)
[3] = T/C endpoint: mean survival time, dose: 16.0 mg/kg/injection, schedule: Q01DX010 (ip), vehicle: alkali diluted with saline

Structure (SMILES): CC(C)=NN=C(N)N
- survivor count (T/C endpoint: mean survival time, dose: 480.0 mg/kg/injection, schedule: Q01DX Z (ip), vehicle: carboxymethylcellulose (CMC)): 0 of 6
- survivor count (T/C endpoint: mean survival time, dose: 480.0 mg/kg/injection, schedule: Q01DX Z (ip), vehicle: saline): 0 of 6
- survivor count (T/C endpoint: mean survival time, dose: 960.0 mg/kg/injection, schedule: Q01DX Z (oral), vehicle: carboxymethylcellulose (CMC)): 5 of 6

Structure (SMILES): CC1OC(OC2C(O[C@H]3CC[C@@]4(C)C(=CC[C@H]5[C@@H]6C[C@@H]7O[C@]8(CC[C@H](C)CN8)[C@@H](C)[C@@H]7[C@@]6(C)CC[C@@H]54)C3)OC(CO)C(O)C2OC2OC(CO)C(O)C(O)C2O)C(O)C(O)C1O (stereo partly specified)
- survivor count (T/C endpoint: mean survival time, dose: 40.0 mg/kg/injection, schedule: Q01DX001 (ip), vehicle: other): 2 of 4
- survivor count (T/C endpoint: mean survival time, dose: 50.0 mg/kg/injection, schedule: Q01DX001 (ip), vehicle: other): 1 of 4
- survivor count (T/C endpoint: mean survival time, dose: 80.0 mg/kg/injection, schedule: Q01DX001 (ip), vehicle: other): 1 of 4
- survivor count (T/C endpoint: mean survival time, dose: 100.0 mg/kg/injection, schedule: Q01DX001 (ip), vehicle: other): 1 of 4
- survivor count (T/C endpoint: mean survival time, dose: 200.0 mg/kg/injection, schedule: Q01DX001 (ip), vehicle: other): 0 of 4
- survivor count (T/C endpoint: mean survival time, dose: 400.0 mg/kg/injection, schedule: Q01DX001 (ip), vehicle: other): 0 of 4

Structure (SMILES): Nc1ncnc2c1c(C1=NCCCN1)cn2C1OC(CO)C(O)C1O (stereo unspecified)
- T/C (T/C endpoint: mean survival time, dose: 25.0 mg/kg/injection, schedule: Q01DX005 (ip), vehicle: saline): 127, 127 [5 of 6 alive], 136 % of control [5 of 6 alive]
- T/C (T/C endpoint: mean survival time, dose: 50.0 mg/kg/injection, schedule: Q01DX005 (ip), vehicle: saline): 127 and 133 % of control [4 of 6 alive]
- T/C (T/C endpoint: mean survival time, dose: 100.0 mg/kg/injection, schedule: Q01DX005 (ip), vehicle: saline): 135 % of control
- T/C (T/C endpoint: mean survival time, dose: 200.0 mg/kg/injection, schedule: Q01DX005 (ip), vehicle: saline): 127 % of control [5 of 6 alive]

Structure (SMILES): CC(Br)C(=O)O (stereo unspecified)
- survivor count [1]: 2 of 4
- survivor count (T/C endpoint: mean survival time, dose: 400.0 mg/kg/injection, schedule: Q01DX001 (ip), vehicle: saline): 1 of 4

Structure (SMILES): COC(=O)c1[nH]cnc1/N=N/N(C)C1CCCCC1
- survivor count [2]: 2 of 4

Structure (SMILES): CCN(CC)CCCC(C)Nc1ccnc2cc(C(F)(F)F)ccc12 (stereo unspecified)
- survivor count (T/C endpoint: mean survival time, dose: 80.0 mg/kg/injection, schedule: Q01DX001 (ip), vehicle: carboxymethylcellulose (CMC)): 0 of 4
- survivor count (T/C endpoint: mean survival time, dose: 100.0 mg/kg/injection, schedule: Q01DX001 (ip), vehicle: carboxymethylcellulose (CMC)): 0 of 4
- survivor count (T/C endpoint: mean survival time, dose: 200.0 mg/kg/injection, schedule: Q01DX001 (ip), vehicle: carboxymethylcellulose (CMC)): 0 of 4
- survivor count [2]: 0 of 4

Structure (SMILES): NC(c1ccccc1)c1ccccc1
- survivor count (T/C endpoint: mean survival time, dose: 400.0 mg/kg/injection, schedule: Q04DX003 (ip), vehicle: saline): 0 of 6

Structure (SMILES): NC(Cc1ccc(N(CCCl)CCCl)cc1)C(=O)O (stereo unspecified)
- T/C (T/C endpoint: mean survival time, dose: 0.64 mg/kg/injection, schedule: Q01DX Z (ip), vehicle: carboxymethylcellulose (CMC)): 127 % of control
- T/C (T/C endpoint: mean survival time, dose: 0.85 mg/kg/injection, schedule: Q01DX Z (ip), vehicle: carboxymethylcellulose (CMC)): 140 % of control
- T/C (T/C endpoint: mean survival time, dose: 1.0 mg/kg/injection, schedule: Q01DX010 (ip), vehicle: alkali diluted with saline): 133 % of control
- T/C (T/C endpoint: mean survival time, dose: 1.25 mg/kg/injection, schedule: Q01DX Z (ip), vehicle: carboxymethylcellulose (CMC)): 129 % of control
- T/C (T/C endpoint: mean survival time, dose: 1.28 mg/kg/injection, schedule: Q01DX Z (ip), vehicle: carboxymethylcellulose (CMC)): 144 % of control
- T/C (T/C endpoint: mean survival time, dose: 1.5 mg/kg/injection, schedule: Q01DX Z (im), vehicle: saline): 144 % of control
- T/C (T/C endpoint: mean survival time, dose: 1.5 mg/kg/injection, schedule: Q01DX Z (ip), vehicle: saline): 136 % of control
- T/C (T/C endpoint: mean survival time, dose: 2.0 mg/kg/injection, schedule: Q01DX010 (ip), vehicle: alkali diluted with saline): 123, 133, 137, 138, 150, 154 % of control
- T/C (T/C endpoint: mean survival time, dose: 2.0 mg/kg/injection, schedule: Q01DX Z (ip), vehicle: methylcellulose (MC)): 148 % of control
- T/C (T/C endpoint: mean survival time, dose: 2.5 mg/kg/injection, schedule: Q01DX010 (ip), vehicle: saline): 125 and 131 % of control
- T/C (T/C endpoint: mean survival time, dose: 2.5 mg/kg/injection, schedule: Q01DX Z (ip), vehicle: carboxymethylcellulose (CMC)): 138 % of control [5 of 6 alive]
- T/C (T/C endpoint: mean survival time, dose: 3.0 mg/kg/injection, schedule: Q01DX Z (sc), vehicle: saline): 127 % of control
- T/C (T/C endpoint: mean survival time, dose: 4.0 mg/kg/injection, schedule: Q01DX010 (ip), vehicle: alkali diluted with saline): 139, 155, 169, 200 % of control
- T/C (T/C endpoint: mean survival time, dose: 4.0 mg/kg/injection, schedule: Q01DX Z (ip), vehicle: methylcellulose (MC)): 145 % of control
- T/C (T/C endpoint: mean survival time, dose: 5.0 mg/kg/injection, schedule: Q01DX009 (ip), vehicle: saline): 141 % of control
- T/C (T/C endpoint: mean survival time, dose: 5.0 mg/kg/injection, schedule: Q01DX010 (ip), vehicle: saline): 143 % of control (2×)
- T/C (T/C endpoint: mean survival time, dose: 5.0 mg/kg/injection, schedule: Q01DX Z (ip), vehicle: carboxymethylcellulose (CMC)): 143 % of control
- T/C (T/C endpoint: mean survival time, dose: 8.0 mg/kg/injection, schedule: Q01DX001 (ip), vehicle: saline): 139 % of control (2×)
- T/C (T/C endpoint: mean survival time, dose: 8.0 mg/kg/injection, schedule: Q01DX010 (ip), vehicle: alkali diluted with saline): 117, 132, 191, 193 % of control
- T/C (T/C endpoint: mean survival time, dose: 8.0 mg/kg/injection, schedule: Q01DX Z (ip), vehicle: methylcellulose (MC)): 148 % of control
- T/C (T/C endpoint: mean survival time, dose: 10.0 mg/kg/injection, schedule: Q01DX010 (ip), vehicle: saline): 131 and 147 % of control
- T/C (T/C endpoint: mean survival time, dose: 12.0 mg/kg/injection, schedule: Q01DX001 (ip), vehicle: saline): 135 and 139 % of control
- T/C (T/C endpoint: mean survival time, dose: 12.0 mg/kg/injection, schedule: Q01DX Z (im), vehicle: saline): 133 % of control [4 of 6 alive]
- T/C (T/C endpoint: mean survival time, dose: 12.0 mg/kg/injection, schedule: Q01DX Z (ip), vehicle: saline): 125 % of control [5 of 6 alive]
- survivor count (T/C endpoint: mean survival time, dose: 12.5 mg/kg/injection, schedule: Q01DX Z (ip), vehicle: saline): 6 of 6
- T/C [3]: 98, 105, 108 % of control
- survivor count [3]: 6 of 6
- T/C (T/C endpoint: mean survival time, dose: 20.0 mg/kg/injection, schedule: Q01DX009 (ip), vehicle: saline): 149 % of control
- survivor count (T/C endpoint: mean survival time, dose: 24.0 mg/kg/injection, schedule: Q01DX Z (im), vehicle: saline): 2 of 6
- survivor count (T/C endpoint: mean survival time, dose: 24.0 mg/kg/injection, schedule: Q01DX Z (ip), vehicle: saline): 6 of 6
- survivor count (T/C endpoint: mean survival time, dose: 24.0 mg/kg/injection, schedule: Q01DX Z (oral), vehicle: saline): 6 of 6
- survivor count (T/C endpoint: mean survival time, dose: 24.0 mg/kg/injection, schedule: Q01DX Z (sc), vehicle: saline): 2 of 6
- survivor count (T/C endpoint: mean survival time, dose: 25.0 mg/kg/injection, schedule: Q01DX Z (ip), vehicle: saline): 6 of 6
- survivor count (T/C endpoint: mean survival time, dose: 32.0 mg/kg/injection, schedule: Q01DX009 (ip), vehicle: saline): 3 of 6 and 6 of 6
- survivor count (T/C endpoint: mean survival time, dose: 32.0 mg/kg/injection, schedule: Q01DX010 (ip), vehicle: alkali diluted with saline): 3 of 6, 5 of 6, 6 of 6
- survivor count (T/C endpoint: mean survival time, dose: 40.0 mg/kg/injection, schedule: Q01DX010 (ip), vehicle: saline): 6 of 6
- survivor count (T/C endpoint: mean survival time, dose: 48.0 mg/kg/injection, schedule: Q01DX006 (iv), vehicle: saline): 3 of 6
- survivor count (T/C endpoint: mean survival time, dose: 48.0 mg/kg/injection, schedule: Q01DX Z (oral), vehicle: saline): 2 of 6
- T/C (T/C endpoint: mean survival time, dose: 96.0 mg/kg/injection, schedule: Q01DX006 (iv), vehicle: saline): 133 % of control [5 of 6 alive]
- survivor count (T/C endpoint: mean survival time, dose: 96.0 mg/kg/injection, schedule: Q01DX Z (oral), vehicle: saline): 3 of 6
- survivor count (T/C endpoint: mean survival time, dose: 100.0 mg/kg/injection, schedule: Q01DX001 (ip), vehicle: saline): 4 of 6
- survivor count [1]: 0 of 6
- T/C (T/C endpoint: median survival time, dose: 2.5 mg/kg/injection, schedule: Q01DX009 (ip), vehicle: saline): 125 and 138 % of control
- T/C (T/C endpoint: median survival time, dose: 5.0 mg/kg/injection, schedule: Q01DX009 (ip), vehicle: saline): 137 and 138 % of control
- T/C (T/C endpoint: median survival time, dose: 20.0 mg/kg/injection, schedule: Q01DX009 (ip), vehicle: saline): 133 % of control
